Experimental data: the supplement of paper PMC10849652
This is one part of the list.

By UniProt entry, the sequences of proteins in these tests, tags left out. Where a name states a change or a piece, a line headed by the entry shows the natural chain unless it says otherwise.
UniProt P30046: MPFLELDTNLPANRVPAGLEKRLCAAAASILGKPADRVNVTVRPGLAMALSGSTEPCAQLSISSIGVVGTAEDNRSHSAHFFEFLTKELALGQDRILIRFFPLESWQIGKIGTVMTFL
UniProt Q9NVP1: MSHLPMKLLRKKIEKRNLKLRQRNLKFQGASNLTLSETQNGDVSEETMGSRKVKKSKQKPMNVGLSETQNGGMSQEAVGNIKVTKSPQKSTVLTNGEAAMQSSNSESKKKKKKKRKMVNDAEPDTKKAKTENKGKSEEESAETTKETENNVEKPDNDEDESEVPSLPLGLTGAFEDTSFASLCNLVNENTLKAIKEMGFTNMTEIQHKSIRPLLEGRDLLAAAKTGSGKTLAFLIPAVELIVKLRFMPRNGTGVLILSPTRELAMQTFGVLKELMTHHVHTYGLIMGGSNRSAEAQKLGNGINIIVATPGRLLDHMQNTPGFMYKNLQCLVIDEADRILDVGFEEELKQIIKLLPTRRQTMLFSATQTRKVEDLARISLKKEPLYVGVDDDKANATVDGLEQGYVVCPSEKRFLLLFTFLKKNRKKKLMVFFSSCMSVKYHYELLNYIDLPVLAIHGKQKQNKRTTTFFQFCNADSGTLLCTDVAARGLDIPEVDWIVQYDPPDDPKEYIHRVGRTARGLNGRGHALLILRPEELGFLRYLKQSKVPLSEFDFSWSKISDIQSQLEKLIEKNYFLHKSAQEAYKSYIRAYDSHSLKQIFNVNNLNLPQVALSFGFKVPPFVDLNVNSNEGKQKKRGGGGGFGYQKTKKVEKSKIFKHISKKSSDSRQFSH
UniProt Q8NA75: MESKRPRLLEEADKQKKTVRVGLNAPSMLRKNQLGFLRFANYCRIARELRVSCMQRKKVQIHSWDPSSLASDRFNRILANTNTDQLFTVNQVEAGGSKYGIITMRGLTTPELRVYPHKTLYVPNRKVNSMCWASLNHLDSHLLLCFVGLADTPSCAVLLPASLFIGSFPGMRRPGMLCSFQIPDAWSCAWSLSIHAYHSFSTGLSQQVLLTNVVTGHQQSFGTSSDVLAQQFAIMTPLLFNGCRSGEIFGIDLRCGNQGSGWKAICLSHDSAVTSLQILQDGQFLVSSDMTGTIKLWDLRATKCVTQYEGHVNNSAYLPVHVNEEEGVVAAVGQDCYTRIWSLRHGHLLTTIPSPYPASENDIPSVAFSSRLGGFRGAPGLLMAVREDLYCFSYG
UniProt O75064: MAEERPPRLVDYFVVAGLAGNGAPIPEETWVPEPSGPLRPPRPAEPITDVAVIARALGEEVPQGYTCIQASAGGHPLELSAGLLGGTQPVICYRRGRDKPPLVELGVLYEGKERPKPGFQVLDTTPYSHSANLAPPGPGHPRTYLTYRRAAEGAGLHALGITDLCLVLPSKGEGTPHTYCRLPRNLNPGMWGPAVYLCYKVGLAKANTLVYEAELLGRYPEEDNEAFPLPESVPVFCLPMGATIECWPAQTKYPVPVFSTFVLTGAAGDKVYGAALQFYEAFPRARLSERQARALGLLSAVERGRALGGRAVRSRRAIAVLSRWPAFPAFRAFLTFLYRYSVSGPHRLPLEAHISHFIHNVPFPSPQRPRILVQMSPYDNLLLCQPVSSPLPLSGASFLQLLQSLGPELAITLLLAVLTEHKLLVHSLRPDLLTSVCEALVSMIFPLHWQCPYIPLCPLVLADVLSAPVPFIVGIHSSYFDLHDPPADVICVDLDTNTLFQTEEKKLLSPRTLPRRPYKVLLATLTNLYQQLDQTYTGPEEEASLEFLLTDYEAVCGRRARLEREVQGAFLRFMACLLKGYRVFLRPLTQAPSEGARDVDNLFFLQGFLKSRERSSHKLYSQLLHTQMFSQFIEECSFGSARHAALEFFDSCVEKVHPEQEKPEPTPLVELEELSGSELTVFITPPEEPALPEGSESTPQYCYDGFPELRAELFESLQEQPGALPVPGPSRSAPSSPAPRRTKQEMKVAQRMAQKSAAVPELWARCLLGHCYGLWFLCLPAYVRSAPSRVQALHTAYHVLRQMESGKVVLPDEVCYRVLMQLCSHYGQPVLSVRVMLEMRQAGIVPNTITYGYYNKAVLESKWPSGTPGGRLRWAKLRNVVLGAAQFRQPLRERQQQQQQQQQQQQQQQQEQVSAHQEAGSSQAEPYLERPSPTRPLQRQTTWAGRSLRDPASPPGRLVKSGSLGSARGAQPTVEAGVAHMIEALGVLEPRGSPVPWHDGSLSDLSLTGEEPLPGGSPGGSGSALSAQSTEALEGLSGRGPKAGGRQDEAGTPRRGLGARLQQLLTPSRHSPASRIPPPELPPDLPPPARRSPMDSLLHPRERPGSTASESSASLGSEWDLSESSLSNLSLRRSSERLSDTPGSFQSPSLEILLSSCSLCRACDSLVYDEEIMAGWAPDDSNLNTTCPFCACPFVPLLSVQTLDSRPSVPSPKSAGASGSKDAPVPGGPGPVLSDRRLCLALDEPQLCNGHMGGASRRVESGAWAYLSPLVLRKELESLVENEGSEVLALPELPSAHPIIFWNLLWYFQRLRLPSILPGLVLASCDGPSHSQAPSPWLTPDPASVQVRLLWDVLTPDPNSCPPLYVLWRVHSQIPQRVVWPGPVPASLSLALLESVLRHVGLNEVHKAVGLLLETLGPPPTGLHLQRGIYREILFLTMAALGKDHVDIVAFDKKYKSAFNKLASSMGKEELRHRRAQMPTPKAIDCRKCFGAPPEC
UniProt Q8TEB1, whole entry, looked up: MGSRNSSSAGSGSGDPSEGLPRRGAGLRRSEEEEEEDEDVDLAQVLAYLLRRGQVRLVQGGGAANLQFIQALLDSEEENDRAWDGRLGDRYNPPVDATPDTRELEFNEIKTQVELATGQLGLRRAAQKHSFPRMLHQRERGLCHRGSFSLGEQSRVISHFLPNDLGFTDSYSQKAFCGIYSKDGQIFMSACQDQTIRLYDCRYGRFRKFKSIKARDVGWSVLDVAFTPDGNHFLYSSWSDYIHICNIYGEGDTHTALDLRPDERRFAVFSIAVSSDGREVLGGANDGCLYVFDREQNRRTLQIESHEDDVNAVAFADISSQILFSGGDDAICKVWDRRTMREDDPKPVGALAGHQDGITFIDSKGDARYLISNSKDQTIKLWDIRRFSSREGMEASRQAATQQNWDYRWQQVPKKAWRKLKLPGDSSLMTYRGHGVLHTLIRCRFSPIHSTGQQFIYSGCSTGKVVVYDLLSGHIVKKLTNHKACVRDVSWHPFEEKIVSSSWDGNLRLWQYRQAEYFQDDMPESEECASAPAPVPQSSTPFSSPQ
UniProt Q9GZP9: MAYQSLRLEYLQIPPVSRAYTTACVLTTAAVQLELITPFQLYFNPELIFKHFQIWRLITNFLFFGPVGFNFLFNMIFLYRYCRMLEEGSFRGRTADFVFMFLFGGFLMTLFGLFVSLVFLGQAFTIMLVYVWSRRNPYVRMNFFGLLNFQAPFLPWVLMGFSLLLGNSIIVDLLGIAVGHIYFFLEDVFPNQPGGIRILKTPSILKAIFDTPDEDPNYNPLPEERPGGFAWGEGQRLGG
UniProt P27707: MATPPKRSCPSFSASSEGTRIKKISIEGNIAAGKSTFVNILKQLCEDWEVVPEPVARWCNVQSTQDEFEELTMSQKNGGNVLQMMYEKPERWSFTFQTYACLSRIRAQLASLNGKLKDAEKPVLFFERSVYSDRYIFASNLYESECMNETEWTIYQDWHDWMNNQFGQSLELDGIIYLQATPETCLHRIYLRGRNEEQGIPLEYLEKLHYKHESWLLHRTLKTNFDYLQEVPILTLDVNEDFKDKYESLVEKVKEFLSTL
UniProt Q92466: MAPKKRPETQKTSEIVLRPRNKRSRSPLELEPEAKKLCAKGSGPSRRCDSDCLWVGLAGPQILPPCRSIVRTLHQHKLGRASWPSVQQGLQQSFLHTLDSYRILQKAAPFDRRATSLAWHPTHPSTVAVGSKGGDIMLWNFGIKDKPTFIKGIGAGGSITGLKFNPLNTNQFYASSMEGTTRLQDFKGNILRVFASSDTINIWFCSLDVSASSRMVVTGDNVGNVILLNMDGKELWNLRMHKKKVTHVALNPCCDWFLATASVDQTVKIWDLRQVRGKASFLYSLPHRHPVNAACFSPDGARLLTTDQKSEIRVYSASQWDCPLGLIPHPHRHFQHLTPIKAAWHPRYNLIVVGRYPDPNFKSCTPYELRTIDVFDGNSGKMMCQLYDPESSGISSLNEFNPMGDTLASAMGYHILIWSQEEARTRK
UniProt Q9H8H2: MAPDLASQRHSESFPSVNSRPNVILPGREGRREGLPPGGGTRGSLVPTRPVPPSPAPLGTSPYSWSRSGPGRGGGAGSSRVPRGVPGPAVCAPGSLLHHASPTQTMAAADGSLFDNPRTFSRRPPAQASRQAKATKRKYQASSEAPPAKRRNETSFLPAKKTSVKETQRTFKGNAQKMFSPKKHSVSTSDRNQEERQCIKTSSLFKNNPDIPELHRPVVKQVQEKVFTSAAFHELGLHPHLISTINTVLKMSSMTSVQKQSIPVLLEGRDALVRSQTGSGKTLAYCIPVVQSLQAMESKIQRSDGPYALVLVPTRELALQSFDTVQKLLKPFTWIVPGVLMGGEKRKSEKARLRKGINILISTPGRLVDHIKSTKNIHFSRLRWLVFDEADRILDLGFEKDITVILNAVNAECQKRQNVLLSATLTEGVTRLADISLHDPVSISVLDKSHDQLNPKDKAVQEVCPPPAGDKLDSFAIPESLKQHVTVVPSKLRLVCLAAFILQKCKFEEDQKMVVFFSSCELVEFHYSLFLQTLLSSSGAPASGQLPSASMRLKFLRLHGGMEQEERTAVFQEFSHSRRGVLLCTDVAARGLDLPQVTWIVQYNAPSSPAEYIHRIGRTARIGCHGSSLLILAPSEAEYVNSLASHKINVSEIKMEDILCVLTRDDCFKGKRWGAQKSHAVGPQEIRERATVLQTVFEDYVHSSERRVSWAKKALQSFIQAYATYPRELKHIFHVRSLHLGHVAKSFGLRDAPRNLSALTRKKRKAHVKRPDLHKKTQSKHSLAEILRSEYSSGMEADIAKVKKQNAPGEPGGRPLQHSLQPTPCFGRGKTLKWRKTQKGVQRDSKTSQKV
UniProt Q16850: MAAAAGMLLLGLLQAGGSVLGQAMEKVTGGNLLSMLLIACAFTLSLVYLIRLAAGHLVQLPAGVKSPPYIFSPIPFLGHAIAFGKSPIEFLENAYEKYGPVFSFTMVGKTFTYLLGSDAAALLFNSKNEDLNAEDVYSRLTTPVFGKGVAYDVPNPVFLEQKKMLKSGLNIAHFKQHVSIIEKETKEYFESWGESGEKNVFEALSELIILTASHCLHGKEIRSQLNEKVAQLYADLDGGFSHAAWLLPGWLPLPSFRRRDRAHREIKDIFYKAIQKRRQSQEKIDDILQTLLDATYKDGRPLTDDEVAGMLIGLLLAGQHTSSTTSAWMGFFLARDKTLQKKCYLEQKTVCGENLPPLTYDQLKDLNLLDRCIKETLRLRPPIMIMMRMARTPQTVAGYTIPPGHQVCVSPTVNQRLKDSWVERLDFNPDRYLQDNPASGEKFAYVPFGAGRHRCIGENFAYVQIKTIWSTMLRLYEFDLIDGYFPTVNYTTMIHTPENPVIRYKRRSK
UniProt P0CG12: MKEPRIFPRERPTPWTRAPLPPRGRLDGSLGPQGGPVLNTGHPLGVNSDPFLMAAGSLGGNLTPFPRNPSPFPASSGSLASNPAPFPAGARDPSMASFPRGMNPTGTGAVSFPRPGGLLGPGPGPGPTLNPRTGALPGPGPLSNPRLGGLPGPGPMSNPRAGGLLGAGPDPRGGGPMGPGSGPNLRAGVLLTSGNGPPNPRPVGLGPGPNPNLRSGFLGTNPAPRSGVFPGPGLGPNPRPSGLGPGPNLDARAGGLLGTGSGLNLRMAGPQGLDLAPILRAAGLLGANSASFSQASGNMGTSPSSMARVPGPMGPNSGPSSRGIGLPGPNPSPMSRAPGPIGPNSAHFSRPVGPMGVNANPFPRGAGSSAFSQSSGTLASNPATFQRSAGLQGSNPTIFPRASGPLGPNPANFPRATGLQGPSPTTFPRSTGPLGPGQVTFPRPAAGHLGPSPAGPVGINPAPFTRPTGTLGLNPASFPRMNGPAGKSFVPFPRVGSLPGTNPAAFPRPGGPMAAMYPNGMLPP
UniProt Q9NV06: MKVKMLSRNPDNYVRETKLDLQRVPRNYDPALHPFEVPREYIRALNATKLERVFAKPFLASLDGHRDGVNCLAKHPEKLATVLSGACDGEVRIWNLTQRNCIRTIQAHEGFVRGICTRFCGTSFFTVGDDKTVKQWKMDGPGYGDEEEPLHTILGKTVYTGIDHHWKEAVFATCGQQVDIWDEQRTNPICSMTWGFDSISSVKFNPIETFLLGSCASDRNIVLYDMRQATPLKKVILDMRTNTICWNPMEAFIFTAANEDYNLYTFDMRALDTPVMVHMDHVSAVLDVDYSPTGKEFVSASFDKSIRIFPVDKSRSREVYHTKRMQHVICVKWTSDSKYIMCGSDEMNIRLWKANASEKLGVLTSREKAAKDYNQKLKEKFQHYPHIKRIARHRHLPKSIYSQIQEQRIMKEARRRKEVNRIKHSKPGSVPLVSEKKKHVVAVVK

Assays:
Assay in all cases: log2 fold change, soluble protein after heating vs DMSO (PISA); higher = thermal stabilisation; K562 lysate, 10 uM; active = over 0.2 and 3.5 SD of the protein, either way, in both replicates (recomputed)
lapatinib = compound: CS(=O)(=O)CCNCc1ccc(-c2ccc3ncnc(Nc4ccc(OCc5cccc(F)c5)c(Cl)c4)c3c2)o1 [lapatinib]
Method in brief: (§1)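 K562 pellets were dounce-homogenised in PBS pH 7.4 with 1 mM MgCl2, and the crude extract at 1 mg/mL protein was treated with 10 μM compound for 30 min. Aliquots were heated for 3 min across 48°C-58°C, pooled, and brought to 0.5% NP-40 at 4°C; soluble protein was the supernatant after 21,000xg for 90 min. Soluble protein was quantified by TMTpro 16plex LC-MS/MS with channel sums equalised, and reported as log2 fold change in thermal stability against DMSO controls, with values from duplicates.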

pictilisib = compound: CS(=O)(=O)N1CCN(Cc2cc3nc(-c4cccc5[nH]ncc45)nc(N4CCOCC4)c3s2)CC1 [pictilisib]
Method in brief: as §1

crizotinib = compound: C[C@@H](Oc1cc(-c2cnn(C3CCNCC3)c2)cnc1N)c1c(Cl)ccc(F)c1Cl [crizotinib]
Method in brief: as §1

[1] = compound: C[C@H](C1=CC=C(C=C1)C(=O)NC2=C3C=CNC3=NC=C2)N
Method in brief: as §1

duvelisib = compound: C[C@H](Nc1ncnc2nc[nH]c12)c1cc2cccc(Cl)c2c(=O)n1-c1ccccc1 [duvelisib]
Method in brief: as §1

gandotinib = compound: Cc1cc(Nc2cc(CN3CCOCC3)c3nc(C)c(Cc4ccc(Cl)cc4F)n3n2)n[nH]1 [gandotinib]
Method in brief: as §1

tozasertib = compound: Cc1cc(Nc2cc(N3CCN(C)CC3)nc(Sc3ccc(NC(=O)C4CC4)cc3)n2)n[nH]1 [tozasertib]
Method in brief: as §1

doramapimod = compound: Cc1ccc(-n2nc(C(C)(C)C)cc2NC(=O)Nc2ccc(OCCN3CCOCC3)c3ccccc23)cc1 [doramapimod]
Method in brief: as §1

bafetinib = compound: Cc1ccc(NC(=O)c2ccc(CN3CC[C@H](N(C)C)C3)c(C(F)(F)F)c2)cc1Nc1nccc(-c2cncnc2)n1 [bafetinib]
Method in brief: as §1

[2] = compound: Cc1cccc(CC(=O)N2CCc3c2ccc(-c2cn(C)c4ncnc(N)c24)c3F)n1
Method in brief: as §1

Measured: log2 fold change

DDX52 (UniProt Q9Y2R4)
inactive: lapatinib 0.049 | pictilisib 0.109 | crizotinib -0.039 | [1] -0.001 | duvelisib -0.031 | gandotinib 0.076 | tozasertib -0.131 | doramapimod 0.202 | bafetinib -0.125 | [2] 0.033

DAP3 (UniProt P51398)
inactive: lapatinib 0.028 | pictilisib -0.003 | crizotinib -0.063 | [1] 0.03 | duvelisib 0.01 | gandotinib -0.004 | tozasertib 0.013 | doramapimod -0.018 | bafetinib 0.029 | [2] 0.013

DDX39B isoform 2 (UniProt Q13838)
inactive: lapatinib 0.005 | pictilisib -0.007 | crizotinib -0.004 | [1] -0.038 | duvelisib 0.007 | gandotinib -0.009 | tozasertib 0.015 | doramapimod 0.002 | bafetinib -0.009 | [2] 0.015

DDT (UniProt P30046)
inactive: lapatinib -0.004 | pictilisib -0.061 | crizotinib 0.033 | [1] -0.045 | duvelisib 0.018 | gandotinib 0.103 | tozasertib 0.02 | doramapimod 0.013 | bafetinib -0.008 | [2] 0.036

DDX50 (UniProt Q9BQ39)
inactive: lapatinib -0.022 | pictilisib 0.051 | crizotinib -0.056 | [1] 0.079 | duvelisib -0.011 | gandotinib -0.067 | tozasertib 0.146 | doramapimod -0.004 | bafetinib -0.023 | [2] -0.011

DDX18 (UniProt Q9NVP1)
inactive: lapatinib 0.017 | pictilisib 0.006 | crizotinib -0.03 | [1] -0.024 | duvelisib 0.006 | gandotinib -0.031 | tozasertib -0.035 | doramapimod -0.021 | bafetinib -0.024 | [2] 0.05

DDI2 isoform 3 (UniProt Q5TDH0)
inactive: lapatinib 0.004 | pictilisib -0.002 | crizotinib 0.001 | [1] -0.013 | duvelisib 0.004 | gandotinib 0.007 | tozasertib -0.029 | doramapimod -0.001 | bafetinib 0.023 | [2] -0.042

DBNL isoform 3 (UniProt Q9UJU6)
inactive: lapatinib 0.01 | pictilisib 0.002 | crizotinib 0.053 | [1] -0.045 | duvelisib 0.011 | gandotinib 0.036 | tozasertib 0.007 | doramapimod -0.069 | bafetinib 0.034 | [2] 0.029

DCAF6 isoform 3 (UniProt Q58WW2)
inactive: lapatinib 0.028 | pictilisib -0.022 | crizotinib 0.014 | [1] 0.058 | duvelisib 0.063 | gandotinib -0.045 | tozasertib -0.004 | doramapimod -0.005 | bafetinib -0.047 | [2] -0.031

DENR (UniProt O43583)
inactive: lapatinib -0.02 | pictilisib 0.02 | crizotinib 0.083 | [1] 0.035 | duvelisib 0.054 | gandotinib -0.015 | tozasertib -0.018 | doramapimod -0.066 | bafetinib 0.033 | [2] -0.047

DCTN5 (UniProt Q9BTE1)
inactive: lapatinib 0.042 | pictilisib 0.055 | crizotinib 0.076 | [1] -0.01 | duvelisib -0.016 | gandotinib 0.012 | tozasertib 0.104 | doramapimod -0.028 | bafetinib 0.205 | [2] -0.032

DCAF4L2 (UniProt Q8NA75)
inactive: lapatinib 0.123 | pictilisib -0.103 | crizotinib -0.008 | [1] 0.054 | duvelisib 0.149 | gandotinib -0.026 | tozasertib -0.015 | doramapimod 0.021 | bafetinib -0.014 | [2] -0.011

DDX3X (UniProt O00571)
inactive: lapatinib -0.026 | pictilisib -0.014 | crizotinib -0.118 | [1] -0.081 | duvelisib 0.051 | gandotinib 0.027 | tozasertib -0.02 | doramapimod 0.086 | bafetinib -0.08 | [2] 0.112

DENND4B (UniProt O75064)
inactive: lapatinib -0.042 | pictilisib -0.013 | crizotinib -0.142 | [1] -0.089 | duvelisib 0.004 | gandotinib 0.084 | tozasertib -0.025 | doramapimod 0.013 | bafetinib -0.023 | [2] 0.115

DCAF11 (UniProt Q8TEB1)
inactive: lapatinib -0.057 | pictilisib -0.056 | crizotinib -0.033 | [1] -0.022 | duvelisib 0.025 | gandotinib -0.045 | tozasertib -0.027 | doramapimod 0.061 | bafetinib 0.009 | [2] 0.057

DCAF7 (UniProt P61962)
inactive: lapatinib -0.035 | pictilisib -0.027 | crizotinib 0.008 | [1] 0.055 | duvelisib -0.017 | gandotinib -0.025 | tozasertib -0.022 | doramapimod -0.018 | bafetinib 0.014 | [2] -0.026

DERL2 (UniProt Q9GZP9)
inactive: lapatinib 0.097 | pictilisib -0.13 | crizotinib -0.026 | [1] -0.044 | duvelisib 0.004 | gandotinib -0.045 | tozasertib 0.068 | doramapimod -0.084 | bafetinib -0.104 | [2] 0.276

DCPS (UniProt Q96C86)
inactive: lapatinib -0.002 | pictilisib -0.055 | crizotinib -0.023 | [1] -0.029 | duvelisib 0.007 | gandotinib 0.032 | tozasertib -0.034 | doramapimod 0.002 | bafetinib -0.036 | [2] 0

DCK (UniProt P27707)
inactive: lapatinib -0.002 | pictilisib 0.168 | crizotinib 0.01 | [1] 0.115 | duvelisib 0.016 | gandotinib -0.038 | tozasertib -0.034 | doramapimod -0.033 | bafetinib 0.104 | [2] -0.09

DDB2 (UniProt Q92466)
inactive: lapatinib -0.03 | pictilisib -0.025 | crizotinib -0.025 | [1] -0.01 | duvelisib 0.014 | gandotinib 0.046 | tozasertib -0.026 | doramapimod 0.05 | bafetinib 0.023 | [2] 0.008

DDX19A (UniProt Q9NUU7)
inactive: lapatinib 0.023 | pictilisib 0.022 | crizotinib -0.008 | [1] 0.016 | duvelisib -0.017 | gandotinib -0.143 | tozasertib 0.02 | doramapimod -0.001 | bafetinib -0.006 | [2] -0.064

DDX17 (UniProt Q92841)
inactive: lapatinib -0.009 | pictilisib -0.021 | crizotinib 0.038 | [1] -0.054 | duvelisib -0.015 | gandotinib 0.012 | tozasertib 0.005 | doramapimod 0.058 | bafetinib -0.001 | [2] 0.082

DDX31 (UniProt Q9H8H2)
inactive: lapatinib 0.028 | pictilisib -0.002 | crizotinib -0.11 | [1] -0.084 | duvelisib 0.042 | gandotinib -0.029 | tozasertib 0.035 | doramapimod -0.012 | bafetinib -0.016 | [2] 0.098

DDX42 (UniProt Q86XP3)
inactive: lapatinib 0.007 | pictilisib 0 | crizotinib -0.014 | [1] -0.006 | duvelisib -0.036 | gandotinib -0.041 | tozasertib 0.023 | doramapimod 0.036 | bafetinib -0.01 | [2] 0.005

DES (UniProt P17661)
inactive: lapatinib -0.079 | pictilisib -0.03 | crizotinib -0.082 | [1] -0.301 | duvelisib 0.098 | gandotinib 0.13 | tozasertib -0.014 | doramapimod 0.047 | bafetinib -0.051 | [2] 0.121

CYP51A1 (UniProt Q16850)
active: gandotinib 0.447 | bafetinib 0.385
inactive: lapatinib 0.105 | pictilisib 0.024 | crizotinib 0.023 | [1] -0.036 | duvelisib -0.065 | tozasertib 0 | doramapimod 0.089 | [2] 0.045

Reprinted from the entries so far (2 entries):
DENR (UniProt O43583)
inactive: lapatinib -0.02 | pictilisib 0.02 | crizotinib 0.083 | [1] 0.035 | duvelisib 0.054 | gandotinib -0.015 | tozasertib -0.018 | doramapimod -0.066 | bafetinib 0.033 | [2] -0.047

DCTN5 (UniProt Q9BTE1)
inactive: lapatinib 0.042 | pictilisib 0.055 | crizotinib 0.076 | [1] -0.01 | duvelisib -0.016 | gandotinib 0.012 | tozasertib 0.104 | doramapimod -0.028 | bafetinib 0.205 | [2] -0.032

(next part)

DERPC (UniProt P0CG12)
inactive: lapatinib 0.142 | pictilisib 0.017 | crizotinib 0.273 | [1] 0.041 | duvelisib -0.027 | gandotinib 0.094 | tozasertib -0.002 | doramapimod 0.377 | bafetinib -0.133 | [2] -0.021

DCAF13 (UniProt Q9NV06)
inactive: lapatinib -0.047 | pictilisib -0.042 | crizotinib 0.025 | [1] 0.033 | duvelisib 0.015 | gandotinib 0.012 | tozasertib 0.029 | doramapimod 0.011 | bafetinib -0.052 | [2] -0.04

DCP1A (UniProt Q9NPI6)
inactive: lapatinib -0.015 | pictilisib -0.015 | crizotinib -0.042 | [1] -0.008 | duvelisib 0.023 | gandotinib 0.003 | tozasertib -0.03 | doramapimod -0.031 | bafetinib 0.043 | [2] 0.089
